Measurements published in PubChem BioAssay (NCATS).
The inconclusive results got no clear call from the source; some entries with a clear call stand among them for comparison. A potency beside an inconclusive call is a rough fit, not a confirmed value. Active and inactive are the calls of the source. Calls follow the shape of the dose curve; as a rule, active = well fitted curve in the direction sought with a large enough effect; inconclusive = small, poorly fitted or top-dose-only effect, or another doubt; inactive = no such curve, though single readings can be large; an effect the other way counts as inactive or inconclusive.

Chains of the proteins cited; added tags and fusions are not shown. Lines headed by an entry give the natural chain unless they say otherwise; changes in a name come on top.
UniProt Q99816: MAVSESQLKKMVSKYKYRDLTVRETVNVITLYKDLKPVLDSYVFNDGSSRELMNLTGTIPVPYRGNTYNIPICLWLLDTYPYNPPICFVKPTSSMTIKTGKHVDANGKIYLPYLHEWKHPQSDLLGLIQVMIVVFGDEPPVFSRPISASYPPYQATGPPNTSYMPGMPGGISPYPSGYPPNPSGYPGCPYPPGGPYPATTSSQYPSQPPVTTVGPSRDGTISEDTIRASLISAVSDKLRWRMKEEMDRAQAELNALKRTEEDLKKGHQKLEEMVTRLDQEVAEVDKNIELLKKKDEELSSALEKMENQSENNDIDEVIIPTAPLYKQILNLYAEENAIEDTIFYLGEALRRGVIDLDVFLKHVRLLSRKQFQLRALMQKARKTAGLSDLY
UniProt Q8WZA2: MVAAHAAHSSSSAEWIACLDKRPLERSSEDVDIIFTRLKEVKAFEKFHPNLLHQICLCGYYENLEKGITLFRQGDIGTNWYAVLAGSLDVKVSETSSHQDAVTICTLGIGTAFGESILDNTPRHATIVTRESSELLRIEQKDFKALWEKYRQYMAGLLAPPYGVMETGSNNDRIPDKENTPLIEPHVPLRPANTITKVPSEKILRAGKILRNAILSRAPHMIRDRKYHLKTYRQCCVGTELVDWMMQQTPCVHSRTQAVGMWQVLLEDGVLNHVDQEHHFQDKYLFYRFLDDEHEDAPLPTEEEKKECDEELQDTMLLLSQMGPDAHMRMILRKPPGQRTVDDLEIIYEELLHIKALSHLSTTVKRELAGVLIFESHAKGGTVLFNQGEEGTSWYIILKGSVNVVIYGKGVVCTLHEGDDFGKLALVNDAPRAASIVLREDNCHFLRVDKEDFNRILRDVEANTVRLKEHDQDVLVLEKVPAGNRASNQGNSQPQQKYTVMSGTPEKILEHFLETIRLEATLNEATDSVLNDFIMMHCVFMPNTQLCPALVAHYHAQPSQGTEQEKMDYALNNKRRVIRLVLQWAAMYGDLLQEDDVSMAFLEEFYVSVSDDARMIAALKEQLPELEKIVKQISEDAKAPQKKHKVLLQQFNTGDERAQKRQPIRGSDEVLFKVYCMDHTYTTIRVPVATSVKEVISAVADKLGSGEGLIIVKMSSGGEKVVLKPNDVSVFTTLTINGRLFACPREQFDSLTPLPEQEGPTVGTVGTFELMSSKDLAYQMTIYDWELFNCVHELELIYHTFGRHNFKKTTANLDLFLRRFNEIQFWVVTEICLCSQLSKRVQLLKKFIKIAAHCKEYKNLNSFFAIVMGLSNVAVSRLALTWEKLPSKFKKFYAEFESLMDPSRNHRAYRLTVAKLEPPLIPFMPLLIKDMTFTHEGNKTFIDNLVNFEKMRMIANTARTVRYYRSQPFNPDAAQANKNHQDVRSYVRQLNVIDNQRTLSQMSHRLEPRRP
UniProt Q9UNA4: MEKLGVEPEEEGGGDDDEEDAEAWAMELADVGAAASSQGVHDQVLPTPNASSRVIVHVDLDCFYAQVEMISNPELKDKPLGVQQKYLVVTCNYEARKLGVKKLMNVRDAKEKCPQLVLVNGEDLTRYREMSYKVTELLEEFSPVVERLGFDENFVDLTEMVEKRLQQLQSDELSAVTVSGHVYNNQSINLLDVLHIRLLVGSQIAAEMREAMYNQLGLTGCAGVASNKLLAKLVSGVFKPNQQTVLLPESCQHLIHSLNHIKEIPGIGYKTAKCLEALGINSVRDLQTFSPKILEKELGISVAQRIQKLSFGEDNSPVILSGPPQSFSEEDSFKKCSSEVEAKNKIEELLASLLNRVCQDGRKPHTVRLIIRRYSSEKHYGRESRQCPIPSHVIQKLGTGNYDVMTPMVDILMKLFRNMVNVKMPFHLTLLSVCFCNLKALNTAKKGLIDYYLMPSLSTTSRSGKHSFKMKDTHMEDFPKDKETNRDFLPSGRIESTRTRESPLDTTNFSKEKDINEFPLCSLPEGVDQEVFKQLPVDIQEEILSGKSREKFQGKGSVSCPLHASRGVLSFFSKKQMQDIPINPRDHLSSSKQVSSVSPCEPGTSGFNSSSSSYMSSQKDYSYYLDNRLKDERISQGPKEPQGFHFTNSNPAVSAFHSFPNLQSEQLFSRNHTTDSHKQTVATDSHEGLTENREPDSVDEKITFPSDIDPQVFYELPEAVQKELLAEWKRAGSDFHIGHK
UniProt P11473: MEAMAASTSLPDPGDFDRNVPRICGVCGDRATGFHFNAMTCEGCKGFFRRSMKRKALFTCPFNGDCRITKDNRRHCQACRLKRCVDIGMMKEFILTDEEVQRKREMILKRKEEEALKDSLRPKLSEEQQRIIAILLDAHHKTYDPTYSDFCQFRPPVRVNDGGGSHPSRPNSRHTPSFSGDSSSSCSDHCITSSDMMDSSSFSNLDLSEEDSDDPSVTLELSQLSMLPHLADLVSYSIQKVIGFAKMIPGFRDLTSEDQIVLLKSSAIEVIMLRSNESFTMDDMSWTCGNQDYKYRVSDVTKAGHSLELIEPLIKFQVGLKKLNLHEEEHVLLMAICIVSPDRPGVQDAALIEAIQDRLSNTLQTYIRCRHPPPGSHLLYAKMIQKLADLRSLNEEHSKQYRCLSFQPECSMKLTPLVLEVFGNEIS

What was measured:
[1] = target: Tumor susceptibility gene 101 protein (Homo sapiens) (UniProt Q99816); assay: qHTS Assay for Iinhibitors of HIV-1 Budding by Blocking the Interaction of PTAP/TSG101: Hit Validation (AID 651600); also: nearly all actives have a fitted effect of over 70% in size
Procedure, shortened: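 Fluorescence polarization binding assay: Tsg101 binding domain (10 uM) mixed with compounds and FITC-labeled PTAP peptide (50 nM) in HEPES pH 7.5, 0.15 M NaCl, 0.01% Tween 20, EDTA, TCEP; 20 min at r.t.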

[2] = target: Rap guanine nucleotide exchange factor 3 (Homo sapiens) (UniProt O95398); assay: Confirmatory qHTS for agonist of cAMP-regulated guanine nucleotide exchange factor 3 (EPAC1) (AID 1645881); settings: EPAC1 Rap1B BODIPY-GDP exchange fluorescence; activation: at 154 µM (top of the series), 100% = cAMP control response; also: nearly all actives have a fitted effect of over 75% in size
[3] = target: Rap guanine nucleotide exchange factor 4 (Homo sapiens) (UniProt Q8WZA2); assay: Confirmatory qHTS for agonist of cAMP-regulated guanine nucleotide exchange factor 4 (EPAC2) (AID 1645884);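 also: nucleotide exchange releases bodipy-GDP from Rap1 and this lowers its fluorescence; nearly all actives have a fitted effect of over 65% in size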
[4] = target: Rap guanine nucleotide exchange factor 4 (Homo sapiens) (UniProt Q8WZA2); assay: Confirmatory qHTS for antagonist of cAMP-regulated guanine nucleotide exchange factor 4 (EPAC2) (AID 1645885); settings: activity change, negative = inhibition: at 12.7 µM (top of the series) unless noted; also: nearly all actives have a fitted effect of over 25% in size
[5] = target: Rap guanine nucleotide exchange factor 3 (Homo sapiens) (UniProt O95398); assay: Counterscreen qHTS for agonist of cAMP-regulated guanine nucleotide exchange factor 3 (EPAC1) (AID 1645889); settings: EPAC1 Rap1B-BODIPY-GDP exchange, fluorescence; activation: at 154 µM (top of the series) unless noted; also: nearly all actives have a fitted effect of over 40% in size; as to activation: % of control where 0% means no effect
Procedure, shortened: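 Rap1B–BODIPY-GDP (250 nM) with 50 uM GDP; compounds pin-transferred to 9.74 nM–152 uM final (activator) or from 7.32 nM upwards (inhibitor). Fluorescence Ex/Em 480/540 nm read at 5 and 30 min, then after adding cAMP or buffer, at room temperature.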

[6] = target: DNA polymerase iota (Homo sapiens) (UniProt Q9UNA4); assay: qHTS for Inhibitors of Polymerase Iota: Confirmatory Assay for Cherry-picked Compounds (AID 720496); settings: Pol iota primer extension, TAMRA/BHQ fluorescence
Procedure, shortened: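 10 nM Pol iota + cpd, 15 min RT; start w/ 50 nM (final) TAMRA reporter/BHQ-2 template primer substrate; ex 525/em 598 nm read at 0 and 10 min kinetic.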

[7] = target: Vitamin D3 receptor (Homo sapiens) (UniProt P11473); assay: qHTS for Inhibitors of the vitamin D receptor (VDR): Hit Validation using a Fluorescein Assay (AID 602200)
Procedure, shortened: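 Fluorescence polarization: 1.5 uM VDR-LBD, 5 uM LG19078 and 5 nM fluorescein-labeled SRC2-3 peptide (final) with compounds, 2 h at room temperature. Read at Ex 495/Em 520 nm; peptide-only wells served as control.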

[8] = qHTS for Inhibitors of the vitamin D receptor (VDR): Hit Validation using a Texas Red Assay (AID 602201)
Procedure, shortened: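 Fluorescence polarization with 1.5 uM VDR-LBD, LG19078 and 7 nM Texas Red (final). After 2 hours at ambient temperature, read at Ex 595 nm/Em 615 nm.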

[9] = target: Vitamin D3 receptor (Homo sapiens) (UniProt P11473); assay: qHTS for Inhibitors of the vitamin D receptor (VDR): Hit Validation using a Beta-Lactamase Assay (AID 602202)
Procedure, shortened: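 Stably transfected HEK293 cells expressing VDR-GAL4 DNA-binding domain fusion with UAS-driven beta-lactamase reporter, activated by agonist LG190178; compounds incubated 18 h, then FRET beta-lactam substrate 2 h; cleaved substrate read at 447 nm emission.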
Potency is read from the fitted curve at half-maximal effect.

## CC(=O)Nc1ccc(Nc2c3c4c(cccc4n(C)c2=O)C(=O)c2ccccc2-3)cc1
[1]
  Potency: inconclusive: 2.91 µM [inhibitor, full curve]
[2]
  Potency: inconclusive: 50.1 µM [activator, partial curve]
[3]
  Potency: active: 100 µM
[4]
  Potency: inconclusive: 84.9 µM [inhibitor, single point]
[5]
  Potency: inconclusive: 3.98 µM [activator, full curve, poor fit]

## CN1/C(=C\C=C(/C#N)C(=O)Nc2ccccc2F)C(C)(C)c2ccccc21
[2]
  Potency: active: 100 µM
[3]
  Potency: active: 100 µM
[5]
  Potency: active: 14.1 µM

## O=C1CC2(CCN(S(=O)(=O)c3ccccc3F)CC2)Oc2ccccc21
[2]
  Potency: inconclusive: 100 µM [activator, partial curve, poor fit]
[3]
  Potency: inconclusive: 22.4 µM [activator, full curve, poor fit]
[5]
  Potency: active: 10 µM

## COc1ccc(-c2csc3nc(C)nc(N4CCCCC4)c23)cc1OC
[2]
  Potency: inconclusive: 56.2 µM [activator, partial curve, poor fit]
[3]
  Potency: inconclusive: 100 µM [activator, partial curve, poor fit]
[5]
  Potency: inconclusive: 15.8 µM [activator, full curve, poor fit]

## CCOc1ccc(S(=O)(=O)Nc2cc(SCC(=O)O)c(O)c3ccccc23)cc1
[6]
  Potency: inconclusive: 84.4 µM [inhibitor, single point]
[2]
  Potency: inconclusive: 126 µM [activator, single point]
[3]
  Potency: inconclusive: 112 µM [activator, partial curve, poor fit]
[4]
  Potency: inconclusive: 0.269 µM [inhibitor, full curve, poor fit]
[5]
  Potency: active: 56.2 µM

## CCOC(=O)c1ccc2[nH]cc(C(C)=O)c(=O)c2c1
[2]
  Potency: inconclusive: 126 µM [activator, partial curve, poor fit]
[3]
  Potency: inconclusive: 112 µM [activator, single point]
[5]
  Potency: inconclusive: 126 µM [activator, partial curve, poor fit]

## COc1ccc(C(=O)Nc2nc(-c3ccc(OC)cc3)c(-c3ccc([N+](=O)[O-])cc3)s2)cc1
[2]
  Potency: inconclusive: 158 µM [activator, single point]
[3]
  Potency: inconclusive: 112 µM [activator, single point]
[5]
  Potency: active: 63.1 µM

## COc1ccc2c(c1)CC/C(=C\Nc1ccc3c(c1)OCO3)C2=O
[2]
  Potency: active: 112 µM
[3]
  Potency: active: 100 µM
[5]
  Potency: inconclusive: 12.6 µM [activator, partial curve, poor fit]

## CC(C)N1CCc2c(sc(NC(=O)c3ccc(C(=O)c4ccccc4)cc3)c2C(N)=O)C1
[2]
  Potency: inconclusive: 178 µM [activator, single point]
[3]
  Potency: inconclusive: 112 µM [activator, partial curve]
[5]
  Potency: inconclusive: 0.562 µM [activator, full curve, poor fit]

## N#CC(C#N)=C1C=C2C=C(N3CCCCCC3)CCC2CC1 (stereo not given)
[2]
  Potency: inconclusive: 89.1 µM [activator, partial curve, poor fit]
[3]
  Potency: inconclusive: 126 µM [activator, partial curve, poor fit]
[5]
  Potency: inconclusive: 100 µM [activator, partial curve, poor fit]

## C=Cc1ccc(CC2(C)C(=O)Nc3ccc(-c4cccnc4)cc32)cc1 (stereo not given)
[2]
  Potency: inconclusive: 112 µM [activator, partial curve, poor fit]
[3]
  Potency: inconclusive: 100 µM [activator, partial curve, poor fit]
[5]
  activation: inconclusive: 55.3% [activator]

## CC(=O)/C(=N\Nc1ccccc1)Sc1cccc2cccnc12
[2]
  Potency: inconclusive: 112 µM [activator, partial curve, poor fit]
[3]
  Potency: inconclusive: 31.6 µM [activator, full curve]
[5]
  Potency: inconclusive: 0.0631 µM [activator, full curve, poor fit]

## Cc1ccc(-c2nc3ccc(C)cn3c2CC2CCCCC2)cc1
[2]
  Potency: inconclusive: 63.1 µM [activator, partial curve]
[3]
  Potency: inconclusive: 89.1 µM [activator, partial curve]
[5]
  Potency: inconclusive: 56.2 µM [activator, partial curve, poor fit]

## O=[N+]([O-])/C=C/c1cn(Cc2ccc(Cl)cc2)c2ccccc12
[7]
  Potency: inconclusive: 3.98 µM [inhibitor, partial curve, poor fit]
[8]
  Potency: inconclusive: 4.47 µM [inhibitor, partial curve, poor fit]
[9]
  Potency: inconclusive: 29.1 µM [inhibitor, single point]
[2]
  Potency: inconclusive: 89.1 µM [activator, partial curve]
[3]
  Potency: inconclusive: 100 µM [activator, single point]
[4]
  Potency: inconclusive: 95.3 µM [inhibitor, partial curve, poor fit]
[5]
  Potency: inconclusive: 1.78 µM [activator, full curve, poor fit]
